Assay results: patent US20230220093A1 (published 2023)
These are yes or no findings as the source states them, for the method shown. Some entries that bind do so weakly or less than the wild type.

Chains of the proteins cited; added tags and fusions are not shown. Residues count along the entry.
UniProt P02768, residues 25-609: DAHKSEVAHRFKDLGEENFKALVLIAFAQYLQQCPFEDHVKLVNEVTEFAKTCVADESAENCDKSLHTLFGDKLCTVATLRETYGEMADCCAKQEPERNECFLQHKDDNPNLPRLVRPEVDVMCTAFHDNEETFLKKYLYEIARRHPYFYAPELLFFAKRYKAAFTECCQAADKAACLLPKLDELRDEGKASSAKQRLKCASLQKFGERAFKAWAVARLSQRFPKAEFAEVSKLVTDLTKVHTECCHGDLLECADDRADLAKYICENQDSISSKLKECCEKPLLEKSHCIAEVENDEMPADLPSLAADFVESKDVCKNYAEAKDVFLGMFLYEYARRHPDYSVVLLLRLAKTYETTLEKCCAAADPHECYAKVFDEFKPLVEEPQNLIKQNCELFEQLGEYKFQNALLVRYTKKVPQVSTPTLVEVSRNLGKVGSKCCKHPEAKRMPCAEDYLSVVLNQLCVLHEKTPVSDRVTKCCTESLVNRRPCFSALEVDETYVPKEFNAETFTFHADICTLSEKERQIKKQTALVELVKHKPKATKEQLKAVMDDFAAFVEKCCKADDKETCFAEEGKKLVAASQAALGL

How the values were obtained:
[1] = biological target: human serum albumin (HSA) (Sigma-Aldrich) (human) (UniProt P02768); assay: BLI, rhCD40L immobilised, then APB-A1, then HSA
[2] = biological target: human serum albumin (HSA) (Sigma-Aldrich) (human) (UniProt P02768); assay: BLI

binding [1]: binds
binding [2]: binds
B1: APB-A1, recombinant antibody (anti-CD40L scFv)2-anti-HSA Fab (bispecific antibody)
heavy: DIVLTQSPATLSVSPGERATISCRASQRVSSSTYSYMHWYQQKPGQPPKLLIKYASNLESGVPARFSGSGSGTDFTLTISSVEPEDFATYYCQHSWEIPPTFGGGTKLEIKRGGGGSGGGGSGGGGSQVQLVQSGAEVVKPGASVKLSCKASGYIFTSYYMYWVKQAPGQGLEWIGEINPSNGDTNFNEKFKSKATLTVDKSASTAYMELSSLRSEDTAVYYCTRSDGRNDMDSWGQGTLVTVSSGGGGSGGGGSGGGGSQVQLVQSGGGPVKPGGSLRLSCAASGFMFRAYSMNWVRQAPGKGLEWVSSISSSGRYIHYADSVKGRFTISRDNAKNSLYLQMNSLRAEDTAVYYCARETVMAGKALDYWGQGTLVTVSSASTKGPSVFPLAPSSKSTSEGTAALGCLVKDYFPEPVTVSWNSGALTSGVHTFPAVLQSSGLYSLSSVVTVPSSSLGTQTYICNVNHKPSNTKVDKKVEPKSS
light: DIVLTQSPATLSVSPGERATISCRASQRVSSSTYSYMHWYQQKPGQPPKLLIKYASNLESGVPARFSGSGSGTDFTLTISSVEPEDFATYYCQHSWEIPPTFGGGTKLEIKRGGGGSGGGGSGGGGSQVQLVQSGAEVVKPGASVKLSCKASGYIFTSYYMYWVKQAPGQGLEWIGEINPSNGDTNFNEKFKSKATLTVDKSASTAYMELSSLRSEDTAVYYCTRSDGRNDMDSWGQGTLVTVSSGSTSGSGKPGSGEGSTKGDIVLTQSPGTLSLSPGETATLSCRASQSVGSNLAWYQQKPGQAPRLLIYGASTGATGVPARFSGSRSGTDFTLTITSLQPEDFATYYCQQYYSFLAKTFGQGTQLEIKRTVAAPSVFIFPPSDEQLKSGTASVVCLLNNFYPREAKVQWKVDNALQSGNSQESVTEQDSKDSTYSLSNTLTLSKADYEKHKVYACEVTHQGLSSPVTKSFNRGES
notes: also called (anti-hu5c8 scFv)2-SL335; (scFv)2-Fab
